Experimental data as given in PMC10721329, “Quisinostat is a brain-penetrant radiosensitizer in glioblastoma” (JCI Insight, 2023).
Several values for one entry are separate records, joined by “and”; a condition that tells them apart may be missing. Identical values can stand only once. Further values from the same series stand in other lists.

Experiment: Stability in mouse plasma and brain homogenate at 4°C
Assay type: in vitro ADME
Conditions: 1000 nM
Protocol: Hydroxamic acid–based compounds have been reported to display poor stability and high plasma clearance due to the presence of arylesterases and carboxylesterases in rodent blood ([34]). Therefore, we measured the stability of QST in mouse plasma and brain to determine whether drug degradation occurred during our sample preparations and equilibrium dialyses for the determination of unbound drug level (performed at 37°C). […] QST degradation was also observed in mouse brain homogenate (Figure 6B). However, perfusion of mice before brain collection prevented rapid drug degradation in the brain matrix. […] Degradation of QST can also be constrained if plasma and brain samples are processed at 4°C (Supplemental Figure 4A). All subsequent sample preparations were therefore performed on ice-cold baths to avoid degradation of QST in our PK analyses. […] The observed stability is probably due to the absence of esterases in human matrices, which are responsible for degradation of QST ([34]). Because we employed QST in several in vitro studies (Figures 1–4), the stability of the molecule was also tested in the cell media used to culture GSCs (neurobasal medium; see Methods).
Stability Study in Mouse Plasma, Mouse Brain, Human Plasma, Human Brain, and Neural […]
The stability of QST was determined in BALB/c mouse plasma, male nude athymic perfused and nonperfused mouse brain homogenate (1:9 w/v of PBS; pH 7.4), human brain (obtained from VRL Eurofins) homogenate (1:4 w/v of PBS; pH 7.4), pooled human plasma (Innovative Research), and neurobasal media. QST stock solutions (1 mM) were prepared in acetonitrile, subsequently diluted in a 40% methanol mixture, and added t o the matrices to make final concentrations of 100 nM or 10 nM. Then 50 or 30 µL of either plasma or brain homogenate containing QST were aliquoted into 1.5-mL microcentrifuge tubes (Eppendorf) and were incubated at either 4 °C or 37 °C for 0, 2, 4, 6, 12, or 24 hours (n = 3 at each time point).
The stability of QST in mouse plasma was also tested at 0, 2, 8, 16, or 24 hours (n = 3 at each time point) in the presence of esterase inhibitors: 0.25 mM BNPP, 1mM dithiobis(2-nitrobenzoic acid) (DTNB), or 1.25 mM phenylmethylsulfonyl fluoride (PMSF). Plasma and brain homogenate samples were stored at −80 °C until LC-MS/MS analysis. […]
Supplemental Figure 4. Stability of QST in mouse plasma is improved upon addition of esterase inhibitors. (A) Stability of QST (100 nM) in mouse plasma and mouse brain homogenate when sample preparation is performed at 4 °C. (B) Stability of QST (500 nM) in mouse plasma spiked with 3 different esterase inhibitors: 0.25 mM bis(p-nitrophenyl) phosphate (BNPP), 1.25 mM phenylmethylsulfonyl fluoride (PMSF), and 1 mM dithiobis(2-nitrobenzoic acid) (DTNB) over the course of 24 hours at 37 °C. (C) Stability of QST (10 nM and 100 nM) in neurobasal cell culture medium over the course of 24 hours at 37 °C.

SMILES: Cn1cc(CNCC2CCN(c3ncc(C(=O)NO)cn3)CC2)c2ccccc21 [QST, quisinostat]
- %stability (mouse brain homogenate, time 0 hrs): 100.0% and 96.5% and 101.8%
- %stability (mouse brain homogenate, time 2 hrs): 96.4% and 99.4% and 93.3% and 96.6%
- %stability (mouse brain homogenate, time 4 hrs): 85.2% and 86.7% and 83.1% and 85.9%
- %stability (mouse plasma, time 0 hrs): 100.0% and 103.7% and 98.6% and 97.7%
- %stability (mouse plasma, time 2 hrs): 89.7% and 90.2% and 88.5% and 90.3%
- %stability (mouse plasma, time 4 hrs): 84.3% and 83.7% and 83.9% and 85.4%
